Reference: the supplement of paper PMC10849652
The other results are listed elsewhere or left out.

Protein sequences, listed by entry. Tags and fused reporters are not part of them. Lines headed by an entry give the natural chain unless they say otherwise; changes in a name come on top.
UniProt Q99683: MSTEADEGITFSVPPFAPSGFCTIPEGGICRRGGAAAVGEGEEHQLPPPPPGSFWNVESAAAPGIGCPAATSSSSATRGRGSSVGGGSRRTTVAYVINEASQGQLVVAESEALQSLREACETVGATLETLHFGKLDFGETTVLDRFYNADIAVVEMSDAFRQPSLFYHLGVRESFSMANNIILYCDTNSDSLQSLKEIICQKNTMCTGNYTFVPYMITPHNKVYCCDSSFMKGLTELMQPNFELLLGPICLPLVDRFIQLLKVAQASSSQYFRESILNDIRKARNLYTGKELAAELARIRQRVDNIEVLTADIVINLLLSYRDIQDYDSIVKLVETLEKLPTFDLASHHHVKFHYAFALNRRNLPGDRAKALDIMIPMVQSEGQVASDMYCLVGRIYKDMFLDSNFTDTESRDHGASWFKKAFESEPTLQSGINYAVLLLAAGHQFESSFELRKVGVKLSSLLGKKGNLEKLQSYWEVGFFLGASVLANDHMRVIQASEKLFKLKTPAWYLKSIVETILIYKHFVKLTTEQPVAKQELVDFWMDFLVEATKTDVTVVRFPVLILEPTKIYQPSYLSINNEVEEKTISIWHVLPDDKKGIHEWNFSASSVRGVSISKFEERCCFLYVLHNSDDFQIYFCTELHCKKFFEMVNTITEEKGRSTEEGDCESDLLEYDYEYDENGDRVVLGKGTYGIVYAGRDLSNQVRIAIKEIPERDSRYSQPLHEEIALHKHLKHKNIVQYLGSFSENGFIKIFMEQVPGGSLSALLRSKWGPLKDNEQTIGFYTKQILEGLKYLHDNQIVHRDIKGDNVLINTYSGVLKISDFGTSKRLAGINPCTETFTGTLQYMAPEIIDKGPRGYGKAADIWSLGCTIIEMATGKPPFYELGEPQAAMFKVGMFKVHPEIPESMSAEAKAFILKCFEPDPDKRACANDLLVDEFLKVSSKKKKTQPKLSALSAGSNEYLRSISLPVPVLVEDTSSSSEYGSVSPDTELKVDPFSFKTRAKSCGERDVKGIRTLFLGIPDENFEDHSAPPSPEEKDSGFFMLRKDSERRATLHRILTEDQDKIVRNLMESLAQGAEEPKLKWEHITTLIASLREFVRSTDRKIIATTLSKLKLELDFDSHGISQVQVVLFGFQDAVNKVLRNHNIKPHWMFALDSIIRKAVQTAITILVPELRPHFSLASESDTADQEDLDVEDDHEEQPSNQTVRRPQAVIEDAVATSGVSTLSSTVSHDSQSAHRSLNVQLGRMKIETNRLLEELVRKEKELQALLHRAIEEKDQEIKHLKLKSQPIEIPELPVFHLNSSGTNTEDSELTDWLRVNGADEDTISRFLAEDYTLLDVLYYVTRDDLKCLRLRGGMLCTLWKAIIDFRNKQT
UniProt Q14244: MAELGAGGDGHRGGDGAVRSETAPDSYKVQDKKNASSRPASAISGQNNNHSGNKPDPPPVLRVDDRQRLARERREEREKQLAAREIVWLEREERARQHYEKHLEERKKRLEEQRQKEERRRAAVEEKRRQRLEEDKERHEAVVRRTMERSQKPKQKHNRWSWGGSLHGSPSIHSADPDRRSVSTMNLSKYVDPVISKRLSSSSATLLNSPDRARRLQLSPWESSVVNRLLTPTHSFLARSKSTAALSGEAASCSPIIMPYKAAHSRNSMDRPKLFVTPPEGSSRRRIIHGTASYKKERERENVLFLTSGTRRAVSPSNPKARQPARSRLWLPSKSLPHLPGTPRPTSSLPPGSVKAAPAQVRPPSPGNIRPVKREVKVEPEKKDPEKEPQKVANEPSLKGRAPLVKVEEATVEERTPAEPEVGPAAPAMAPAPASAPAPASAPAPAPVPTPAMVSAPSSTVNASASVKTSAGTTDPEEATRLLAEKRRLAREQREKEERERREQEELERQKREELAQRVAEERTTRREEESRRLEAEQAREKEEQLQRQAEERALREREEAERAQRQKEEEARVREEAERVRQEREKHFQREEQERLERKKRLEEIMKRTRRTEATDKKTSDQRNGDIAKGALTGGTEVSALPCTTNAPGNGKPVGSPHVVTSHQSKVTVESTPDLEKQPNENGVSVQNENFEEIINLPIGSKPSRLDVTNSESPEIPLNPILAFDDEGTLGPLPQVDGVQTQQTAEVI
UniProt Q9Y4F3: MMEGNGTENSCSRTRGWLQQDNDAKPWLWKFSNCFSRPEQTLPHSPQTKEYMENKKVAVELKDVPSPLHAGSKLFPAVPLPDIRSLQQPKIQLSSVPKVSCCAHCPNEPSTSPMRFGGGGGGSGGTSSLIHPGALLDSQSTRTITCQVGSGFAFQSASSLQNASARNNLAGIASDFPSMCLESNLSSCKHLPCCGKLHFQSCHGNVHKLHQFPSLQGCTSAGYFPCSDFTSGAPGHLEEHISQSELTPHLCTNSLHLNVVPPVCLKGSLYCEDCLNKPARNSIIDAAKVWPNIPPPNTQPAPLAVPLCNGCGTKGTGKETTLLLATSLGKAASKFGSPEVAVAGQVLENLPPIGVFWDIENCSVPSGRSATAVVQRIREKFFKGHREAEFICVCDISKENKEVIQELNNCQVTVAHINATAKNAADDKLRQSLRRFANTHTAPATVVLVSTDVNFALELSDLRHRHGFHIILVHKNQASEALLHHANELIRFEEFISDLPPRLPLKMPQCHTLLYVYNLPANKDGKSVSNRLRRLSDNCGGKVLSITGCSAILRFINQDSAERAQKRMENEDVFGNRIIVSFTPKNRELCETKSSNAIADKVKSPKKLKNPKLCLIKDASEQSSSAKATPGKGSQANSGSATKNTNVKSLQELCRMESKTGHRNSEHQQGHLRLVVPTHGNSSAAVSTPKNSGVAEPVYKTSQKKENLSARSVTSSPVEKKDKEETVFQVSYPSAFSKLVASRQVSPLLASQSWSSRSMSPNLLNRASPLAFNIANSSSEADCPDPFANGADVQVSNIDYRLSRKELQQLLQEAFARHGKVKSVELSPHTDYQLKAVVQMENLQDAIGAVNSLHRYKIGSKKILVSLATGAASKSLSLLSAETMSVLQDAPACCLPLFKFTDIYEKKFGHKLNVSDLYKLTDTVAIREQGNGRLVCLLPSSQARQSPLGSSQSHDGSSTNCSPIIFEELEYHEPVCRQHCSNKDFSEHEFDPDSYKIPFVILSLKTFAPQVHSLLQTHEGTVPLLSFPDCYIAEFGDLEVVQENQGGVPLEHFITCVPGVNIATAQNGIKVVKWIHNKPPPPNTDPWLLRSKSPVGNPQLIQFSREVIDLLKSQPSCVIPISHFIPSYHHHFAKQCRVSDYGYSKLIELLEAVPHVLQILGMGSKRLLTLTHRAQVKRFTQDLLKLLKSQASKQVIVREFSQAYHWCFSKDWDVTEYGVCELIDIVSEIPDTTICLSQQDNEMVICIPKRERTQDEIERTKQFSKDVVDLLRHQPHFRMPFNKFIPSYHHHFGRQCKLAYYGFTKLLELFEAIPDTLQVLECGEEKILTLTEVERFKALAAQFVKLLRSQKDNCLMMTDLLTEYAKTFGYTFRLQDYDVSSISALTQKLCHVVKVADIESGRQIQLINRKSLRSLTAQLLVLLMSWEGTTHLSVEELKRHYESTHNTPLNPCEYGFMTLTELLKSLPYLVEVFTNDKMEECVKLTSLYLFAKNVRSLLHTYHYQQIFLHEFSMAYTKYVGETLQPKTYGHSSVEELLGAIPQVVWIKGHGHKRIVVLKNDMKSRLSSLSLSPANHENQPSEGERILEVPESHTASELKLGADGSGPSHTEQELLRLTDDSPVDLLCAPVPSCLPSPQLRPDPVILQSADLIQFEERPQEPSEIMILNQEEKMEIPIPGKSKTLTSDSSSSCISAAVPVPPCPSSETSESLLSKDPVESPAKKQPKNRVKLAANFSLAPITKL
UniProt Q16553: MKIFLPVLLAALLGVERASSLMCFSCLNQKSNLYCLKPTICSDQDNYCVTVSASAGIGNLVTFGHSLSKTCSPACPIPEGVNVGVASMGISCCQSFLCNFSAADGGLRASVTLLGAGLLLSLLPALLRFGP
UniProt P43358: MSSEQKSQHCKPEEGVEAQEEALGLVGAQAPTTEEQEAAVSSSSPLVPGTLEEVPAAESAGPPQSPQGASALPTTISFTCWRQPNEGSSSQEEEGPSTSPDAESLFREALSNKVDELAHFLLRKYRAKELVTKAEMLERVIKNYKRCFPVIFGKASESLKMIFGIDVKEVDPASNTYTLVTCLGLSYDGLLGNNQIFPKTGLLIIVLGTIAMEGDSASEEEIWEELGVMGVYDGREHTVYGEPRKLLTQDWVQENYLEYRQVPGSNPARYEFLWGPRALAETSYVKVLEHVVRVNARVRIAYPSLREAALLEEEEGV

Experiments:
Test in all cases: log2 fold change, soluble protein after heating vs DMSO (PISA); higher = thermal stabilisation; K562 lysate, 10 uM; active = over 0.2 and 3.5 SD of the protein, either way, in both replicates (recomputed)
vemurafenib = compound: CCCS(=O)(=O)Nc1ccc(F)c(C(=O)c2c[nH]c3ncc(-c4ccc(Cl)cc4)cc23)c1F [vemurafenib]
Outline: (§1)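 A 30 min treatment with 10 μM compound was applied to crude K562 extract at 1 mg/mL protein in PBS pH 7.4 with 1 mM MgCl2. Heating for 3 min spanned 48°C-58°C, after which aliquots were pooled, adjusted to 0.5% NP-40 at 4°C and spun at 21,000xg for 90 min. TMTpro 16plex LC-MS/MS of the supernatant, with channel sums equalised, gave values recorded as log-two fold change in thermal stability against solvent controls, from duplicates.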

[1] = compound: CCCS(=O)(=O)Nc1ccc(F)c(C(=O)c2c[nH]c3ncc(Cl)cc23)c1F
Outline: as §1

barasertib = compound: CCN(CCCOc1ccc2c(Nc3cc(CC(=O)Nc4cccc(F)c4)[nH]n3)ncnc2c1)CCOP(=O)(O)O [barasertib]
Outline: as §1

[2] = compound: CC[C@@H]1C(=O)N(C)c2cnc(Nc3ccc(C(=O)NC4CCN(C)CC4)cc3OC)nc2N1C1CCCC1
Outline: as §1

volasertib = compound: CC[C@@H]1C(=O)N(C)c2cnc(Nc3ccc(C(=O)N[C@H]4CC[C@H](N5CCN(CC6CC6)CC5)CC4)cc3OC)nc2N1C(C)C [volasertib]
Outline: as §1

[3] = compound: CCn1c(C(=O)N(C2CC2)C2CC2)cc2c3c(ncn3C)c(Nc3cc(C)n(C)n3)nc21
Outline: as §1

[4] = compound: CCn1cc(-c2ccnc3[nH]c(-c4cccc(CN(C)C)c4)cc23)c(-c2ccc(NC(=O)N(C)C)cc2)n1
Outline: as §1

[5] = compound: CN1CCC(CNc2ccc3ncc(-c4cccc(OC(F)(F)F)c4)n3n2)CC1
Outline: as §1

saracatinib = compound: CN1CCN(CCOc2cc(OC3CCOCC3)c3c(Nc4c(Cl)ccc5c4OCO5)ncnc3c2)CC1 [saracatinib]
Outline: as §1

sotrastaurin = compound: CN1CCN(c2nc(C3=C(c4c[nH]c5ccccc45)C(=O)NC3=O)c3ccccc3n2)CC1 [sotrastaurin]
Outline: as §1

alvocidib = compound: CN1CC[C@H](c2c(O)cc(O)c3c(=O)cc(-c4ccccc4Cl)oc23)[C@H](O)C1 [alvocidib]
Outline: as §1

Tubastatin A = compound: CN1CCc2c(c3ccccc3n2Cc2ccc(C(=O)NO)cc2)C1 [Tubastatin A]
Outline: as §1

[6] = compound: CNC(=O)C1=CC=CC=C1NC2=NC(=NC=C2Cl)NC3=C(C=C(C=C3)N4CCOCC4)OC
Outline: as §1

defactinib = compound: CNC(=O)c1ccc(Nc2ncc(C(F)(F)F)c(NCc3nccnc3N(C)S(C)(=O)=O)n2)cc1 [defactinib]
Outline: as §1

[7] = compound: CNc1nc(-c2ccc3c(N)n[nH]c3c2)cc(N2C[C@@H](C(=O)NC3CCCCC3)CC[C@H]2C)n1
Outline: as §1

encorafenib = compound: COC(=O)N[C@@H](C)CNc1nccc(-c2cn(C(C)C)nc2-c2cc(Cl)cc(NS(C)(=O)=O)c2F)n1 [encorafenib]
Outline: as §1

[8] = compound: COC(=O)[C@H](CCSC)NC(=O)C1=C(C=C(C=C1)NC[C@H](CS)N)C2=CC=CC=C2
Outline: as §1

[9] = compound: COc1cc2nc(-c3cc(F)ccc3O)nc(N[C@@H]3CNC[C@H]3C(C)(C)O)c2cc1OC
Outline: as §1

gefitinib = compound: COc1cc2ncnc(Nc3ccc(F)c(Cl)c3)c2cc1OCCCN1CCOCC1 [gefitinib]
Outline: as §1

alisertib = compound: COc1cc(Nc2ncc3c(n2)-c2ccc(Cl)cc2C(c2c(F)cccc2OC)=NC3)ccc1C(=O)O [alisertib]
Outline: as §1

| Target | log2 fold change (vemurafenib) | log2 fold change [1] | log2 fold change (barasertib) | log2 fold change [2] | log2 fold change (volasertib) | log2 fold change [3] | log2 fold change [4] | log2 fold change [5] | log2 fold change (saracatinib) | log2 fold change (sotrastaurin) | log2 fold change (alvocidib) | log2 fold change (Tubastatin A) | log2 fold change [6] | log2 fold change (defactinib) | log2 fold change [7] | log2 fold change (encorafenib) | log2 fold change [8] | log2 fold change [9] | log2 fold change (gefitinib) | log2 fold change (alisertib) |
| --- | --- | --- | --- | --- | --- | --- | --- | --- | --- | --- | --- | --- | --- | --- | --- | --- | --- | --- | --- | --- |
| MAP3K20 (UniProt Q9NYL2) | inactive: 0.034 | inactive: 0.014 | inactive: 0.009 | inactive: 0.048 | inactive: -0.026 | inactive: 0.042 | inactive: 0.05 | inactive: -0.108 | inactive: 0.111 | inactive: 0.045 | inactive: 0.048 | inactive: -0.027 | inactive: -0.01 | inactive: -0.007 | inactive: 0.247 | inactive: 0.213 | inactive: -0.033 | inactive: -0.01 | inactive: 0.022 | – |
| MAP3K5 (UniProt Q99683) | inactive: 0.078 | inactive: -0.015 | inactive: 0.151 | inactive: -0.17 | inactive: -0.017 | inactive: -0.158 | inactive: -0.022 | inactive: -0.071 | – | inactive: -0.041 | inactive: 0.014 | inactive: -0.031 | – | inactive: 0.011 | – | inactive: 0.147 | inactive: -0.077 | inactive: -0.005 | inactive: 0.297 | inactive: -0.145 |
| MAP7 (UniProt Q14244) | inactive: -0.013 | inactive: 0 | inactive: 0.037 | inactive: 0.118 | inactive: 0.007 | – | inactive: 0.107 | inactive: 0.062 | inactive: 0.003 | inactive: -0.046 | inactive: -0.05 | – | inactive: -0.02 | inactive: 0.031 | inactive: 0.021 | inactive: 0.109 | inactive: 0.009 | inactive: 0.021 | inactive: 0.048 | inactive: 0.043 |
| MARF1 (UniProt Q9Y4F3) | inactive: -0.093 | – | inactive: 0.051 | inactive: -0.059 | – | inactive: 0.007 | inactive: -0.027 | inactive: -0.059 | inactive: 0.027 | inactive: 0 | inactive: -0.024 | inactive: -0.194 | inactive: 0.024 | inactive: -0.157 | inactive: -0.021 | inactive: 0.053 | inactive: 0.086 | – | inactive: 0.02 | inactive: -0.056 |
| LY6E (UniProt Q16553) | inactive: 0.068 | inactive: 0.026 | inactive: -0.02 | inactive: -0.055 | inactive: 0.022 | – | active: -1.86 | inactive: 0.533 | – | – | inactive: -0.726 | – | – | inactive: -0.024 | – | inactive: 0.03 | inactive: -0.005 | inactive: 0.016 | inactive: -0.013 | inactive: 0.029 |
| MAGEA4 (UniProt P43358) | inactive: -0.046 | inactive: -0.07 | – | inactive: -0.07 | inactive: -0.04 | inactive: 0.05 | inactive: 0.293 | inactive: -0.075 | inactive: 0.054 | inactive: -0.02 | inactive: -0.066 | inactive: -0.013 | inactive: -0.029 | inactive: 0.175 | inactive: -0.078 | inactive: 0.103 | inactive: -0.022 | inactive: -0.04 | inactive: 0.128 | inactive: -0.019 |
